Reference: publication PMC10558514
No constants are given. Whether binding was seen depends on the method and setting. In cells and extracts the contact can be indirect. Some binding calls cover weakened binding; strength is not graded here. For part of these data: Where a sequence is shown, tags or fusion partners need not be part of it. One block for each molecule: values may come before it.

The chains behind the UniProt entries cited, without tags or fusion partners.
UniProt P68104: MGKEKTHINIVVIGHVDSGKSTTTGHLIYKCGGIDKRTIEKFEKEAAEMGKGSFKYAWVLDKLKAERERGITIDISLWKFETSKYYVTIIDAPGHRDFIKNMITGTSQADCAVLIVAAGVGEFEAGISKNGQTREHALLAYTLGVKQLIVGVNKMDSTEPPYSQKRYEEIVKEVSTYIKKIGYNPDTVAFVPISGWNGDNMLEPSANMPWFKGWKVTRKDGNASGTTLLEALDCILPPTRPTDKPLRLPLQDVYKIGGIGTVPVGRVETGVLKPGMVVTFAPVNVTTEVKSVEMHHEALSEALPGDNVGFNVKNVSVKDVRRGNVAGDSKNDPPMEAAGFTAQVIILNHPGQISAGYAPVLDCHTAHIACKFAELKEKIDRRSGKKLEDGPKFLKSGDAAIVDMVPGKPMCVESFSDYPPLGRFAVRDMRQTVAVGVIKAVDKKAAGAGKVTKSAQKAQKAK
UniProt Q14203: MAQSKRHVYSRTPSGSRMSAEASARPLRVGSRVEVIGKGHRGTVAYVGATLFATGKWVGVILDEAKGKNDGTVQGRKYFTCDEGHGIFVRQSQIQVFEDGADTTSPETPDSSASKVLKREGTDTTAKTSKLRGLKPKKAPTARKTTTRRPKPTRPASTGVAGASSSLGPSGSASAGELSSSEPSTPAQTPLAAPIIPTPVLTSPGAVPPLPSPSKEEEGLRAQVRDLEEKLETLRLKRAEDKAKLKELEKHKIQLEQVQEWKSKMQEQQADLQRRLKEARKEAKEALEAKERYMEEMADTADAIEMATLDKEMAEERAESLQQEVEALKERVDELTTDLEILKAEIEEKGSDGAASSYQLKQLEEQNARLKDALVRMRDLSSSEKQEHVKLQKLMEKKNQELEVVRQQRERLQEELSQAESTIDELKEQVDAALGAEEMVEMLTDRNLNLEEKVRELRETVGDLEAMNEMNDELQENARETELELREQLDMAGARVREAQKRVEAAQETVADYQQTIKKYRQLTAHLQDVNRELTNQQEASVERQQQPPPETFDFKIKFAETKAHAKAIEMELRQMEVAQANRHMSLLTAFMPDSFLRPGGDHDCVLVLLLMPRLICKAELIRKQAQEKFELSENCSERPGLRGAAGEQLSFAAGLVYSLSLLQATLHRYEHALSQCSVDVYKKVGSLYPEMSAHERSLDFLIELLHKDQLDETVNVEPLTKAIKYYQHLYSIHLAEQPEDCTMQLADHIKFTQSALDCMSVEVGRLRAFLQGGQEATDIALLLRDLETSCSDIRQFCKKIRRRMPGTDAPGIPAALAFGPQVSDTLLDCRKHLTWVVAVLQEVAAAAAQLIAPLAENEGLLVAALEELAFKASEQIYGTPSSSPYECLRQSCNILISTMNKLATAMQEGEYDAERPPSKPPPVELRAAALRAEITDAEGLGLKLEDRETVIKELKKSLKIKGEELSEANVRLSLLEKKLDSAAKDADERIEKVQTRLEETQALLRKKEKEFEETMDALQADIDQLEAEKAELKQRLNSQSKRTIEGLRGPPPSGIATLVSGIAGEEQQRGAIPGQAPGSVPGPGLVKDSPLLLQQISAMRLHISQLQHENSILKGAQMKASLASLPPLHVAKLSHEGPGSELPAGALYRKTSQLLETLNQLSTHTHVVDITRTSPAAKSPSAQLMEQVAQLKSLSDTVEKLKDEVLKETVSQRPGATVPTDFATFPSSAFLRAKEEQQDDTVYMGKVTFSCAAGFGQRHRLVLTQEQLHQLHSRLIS

What was measured:
FLAG-CTIF = molecular target: T1, FLAG-CTIF (UniProt O43310); assay: co-IP; IP of FLAG-CTIF with α-FLAG antibody from HEK293T extracts, western blot; cells undepleted or depleted of YTHDF2, with or without MG132 (Supplementary Fig. 3a, Fig. 8b)
T1 sequence: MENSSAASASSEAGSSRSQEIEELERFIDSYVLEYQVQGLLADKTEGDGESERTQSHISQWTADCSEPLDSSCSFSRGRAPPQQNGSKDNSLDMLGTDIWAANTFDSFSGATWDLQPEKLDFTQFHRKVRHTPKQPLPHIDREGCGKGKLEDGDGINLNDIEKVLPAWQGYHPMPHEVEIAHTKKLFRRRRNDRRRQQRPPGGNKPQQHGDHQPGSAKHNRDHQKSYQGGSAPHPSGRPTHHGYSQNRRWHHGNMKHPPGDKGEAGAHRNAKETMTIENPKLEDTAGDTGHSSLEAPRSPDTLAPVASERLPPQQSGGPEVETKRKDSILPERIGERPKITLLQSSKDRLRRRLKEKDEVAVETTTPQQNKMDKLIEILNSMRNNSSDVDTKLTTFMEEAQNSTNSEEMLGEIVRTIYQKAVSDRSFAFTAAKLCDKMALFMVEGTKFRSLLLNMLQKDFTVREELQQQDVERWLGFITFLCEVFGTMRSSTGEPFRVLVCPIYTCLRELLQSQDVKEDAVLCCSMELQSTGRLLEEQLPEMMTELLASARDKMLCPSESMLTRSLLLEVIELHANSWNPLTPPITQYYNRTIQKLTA

[1] = molecular target: T2, hyperphosphorylated UPF1 (UPF1-HP) (human) (UniProt Q92900); assay: co-IP; IP of UPF1-WT, UPF1-HP or UPF1-HP-12A, with or without MG132 (Supplementary Fig. 3b)
T2 sequence (chain, hyperphosphorylated (sites not printed)): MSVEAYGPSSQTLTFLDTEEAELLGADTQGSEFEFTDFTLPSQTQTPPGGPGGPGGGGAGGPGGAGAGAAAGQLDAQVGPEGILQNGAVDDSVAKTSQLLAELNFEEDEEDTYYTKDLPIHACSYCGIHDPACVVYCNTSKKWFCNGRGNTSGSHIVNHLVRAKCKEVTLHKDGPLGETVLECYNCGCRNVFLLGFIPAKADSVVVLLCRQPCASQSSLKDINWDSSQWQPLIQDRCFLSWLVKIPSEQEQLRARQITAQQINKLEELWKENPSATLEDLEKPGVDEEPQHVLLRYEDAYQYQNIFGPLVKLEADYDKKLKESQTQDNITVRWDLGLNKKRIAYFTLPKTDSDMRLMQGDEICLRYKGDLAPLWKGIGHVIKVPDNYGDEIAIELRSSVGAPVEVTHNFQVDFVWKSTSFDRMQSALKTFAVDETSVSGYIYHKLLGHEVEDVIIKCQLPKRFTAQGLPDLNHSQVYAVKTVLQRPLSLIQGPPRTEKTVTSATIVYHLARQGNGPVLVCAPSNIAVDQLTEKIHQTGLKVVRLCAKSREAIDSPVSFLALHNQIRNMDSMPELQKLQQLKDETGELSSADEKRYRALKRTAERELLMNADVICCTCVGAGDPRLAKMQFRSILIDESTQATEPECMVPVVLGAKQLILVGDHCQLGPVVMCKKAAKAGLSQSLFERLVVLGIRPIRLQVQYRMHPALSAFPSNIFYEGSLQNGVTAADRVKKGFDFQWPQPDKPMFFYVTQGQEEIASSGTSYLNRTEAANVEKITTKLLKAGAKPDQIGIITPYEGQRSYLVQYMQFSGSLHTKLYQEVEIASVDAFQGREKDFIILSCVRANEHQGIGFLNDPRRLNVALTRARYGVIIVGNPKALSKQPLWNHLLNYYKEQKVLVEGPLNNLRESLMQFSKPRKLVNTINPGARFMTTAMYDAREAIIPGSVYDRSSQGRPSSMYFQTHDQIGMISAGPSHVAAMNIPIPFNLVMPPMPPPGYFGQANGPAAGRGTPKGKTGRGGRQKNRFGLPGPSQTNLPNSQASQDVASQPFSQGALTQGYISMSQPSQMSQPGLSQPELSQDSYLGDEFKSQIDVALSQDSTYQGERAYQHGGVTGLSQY

[2] = molecular target: T3, YT521-B homology domain-containing family protein 2 (YTHDF2), endogenous (human (endogenous in HEK293T)) (UniProt Q9Y5A9); assay: co-IP; IP with an antibody against endogenous YTHDF1, YTHDF2 or YTHDF3 from HEK293T extracts in NET-2 buffer (50 mM Tris-HCl pH 7.4, 150 mM NaCl, 0.05% NP-40), 3 h at 4 °C, western blot; cells treated with MG132 12 h (Fig. 2f), or with DMSO or MG132, with or without UPF1 siRNA (Fig. 3a)
T3 sequence: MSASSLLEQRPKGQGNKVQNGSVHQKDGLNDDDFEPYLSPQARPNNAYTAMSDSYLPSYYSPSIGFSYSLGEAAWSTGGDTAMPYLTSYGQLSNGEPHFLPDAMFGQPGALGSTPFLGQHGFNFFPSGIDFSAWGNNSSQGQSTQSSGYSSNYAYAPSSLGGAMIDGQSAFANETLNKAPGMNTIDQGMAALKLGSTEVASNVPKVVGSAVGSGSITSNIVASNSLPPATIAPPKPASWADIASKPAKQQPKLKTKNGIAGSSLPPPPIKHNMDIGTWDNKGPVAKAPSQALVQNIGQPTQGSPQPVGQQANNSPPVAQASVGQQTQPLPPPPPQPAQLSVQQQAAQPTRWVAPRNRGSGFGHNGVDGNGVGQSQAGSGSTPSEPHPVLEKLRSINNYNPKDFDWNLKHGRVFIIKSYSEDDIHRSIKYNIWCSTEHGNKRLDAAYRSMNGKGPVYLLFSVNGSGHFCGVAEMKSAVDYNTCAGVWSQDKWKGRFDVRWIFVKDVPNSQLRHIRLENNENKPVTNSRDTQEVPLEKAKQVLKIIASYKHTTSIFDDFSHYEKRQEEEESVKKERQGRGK

[3] = molecular target: T4, Myc-YTHDF2-wild type (WT) (human) (UniProt Q9Y5A9); assay: co-IP; IP with α-Myc antibody from extracts of HEK293T cells transfected with Myc-YTHDF2 (WT or variant), western blot; DMSO or MG132 12 h (Fig. 3b), two days after transfection (Fig. 4a)
T4 sequence: T3 sequence

binding (FLAG-CTIF): binds
binding [1]: binds
Molecule: eukaryotic translation elongation factor 1 alpha 1 (eEF1A1), endogenous (from UniProt P68104 1-462)

binding [1]: binds
Molecule: dynactin 1 (DCTN1), endogenous (from UniProt Q14203 1-1278)

binding (FLAG-CTIF): binds
binding [2]: binds
binding [3]: binds
B1: upstream frameshift 1 (UPF1), endogenous (protein, UniProt Q92900 1-1129)
chain: MSVEAYGPSSQTLTFLDTEEAELLGADTQGSEFEFTDFTLPSQTQTPPGGPGGPGGGGAGGPGGAGAGAAAGQLDAQVGPEGILQNGAVDDSVAKTSQLLAELNFEEDEEDTYYTKDLPIHACSYCGIHDPACVVYCNTSKKWFCNGRGNTSGSHIVNHLVRAKCKEVTLHKDGPLGETVLECYNCGCRNVFLLGFIPAKADSVVVLLCRQPCASQSSLKDINWDSSQWQPLIQDRCFLSWLVKIPSEQEQLRARQITAQQINKLEELWKENPSATLEDLEKPGVDEEPQHVLLRYEDAYQYQNIFGPLVKLEADYDKKLKESQTQDNITVRWDLGLNKKRIAYFTLPKTDSGNEDLVIIWLRDMRLMQGDEICLRYKGDLAPLWKGIGHVIKVPDNYGDEIAIELRSSVGAPVEVTHNFQVDFVWKSTSFDRMQSALKTFAVDETSVSGYIYHKLLGHEVEDVIIKCQLPKRFTAQGLPDLNHSQVYAVKTVLQRPLSLIQGPPGTGKTVTSATIVYHLARQGNGPVLVCAPSNIAVDQLTEKIHQTGLKVVRLCAKSREAIDSPVSFLALHNQIRNMDSMPELQKLQQLKDETGELSSADEKRYRALKRTAERELLMNADVICCTCVGAGDPRLAKMQFRSILIDESTQATEPECMVPVVLGAKQLILVGDHCQLGPVVMCKKAAKAGLSQSLFERLVVLGIRPIRLQVQYRMHPALSAFPSNIFYEGSLQNGVTAADRVKKGFDFQWPQPDKPMFFYVTQGQEEIASSGTSYLNRTEAANVEKITTKLLKAGAKPDQIGIITPYEGQRSYLVQYMQFSGSLHTKLYQEVEIASVDAFQGREKDFIILSCVRANEHQGIGFLNDPRRLNVALTRARYGVIIVGNPKALSKQPLWNHLLNYYKEQKVLVEGPLNNLRESLMQFSKPRKLVNTINPGARFMTTAMYDAREAIIPGSVYDRSSQGRPSSMYFQTHDQIGMISAGPSHVAAMNIPIPFNLVMPPMPPPGYFGQANGPAAGRGTPKGKTGRGGRQKNRFGLPGPSQTNLPNSQASQDVASQPFSQGALTQGYISMSQPSQMSQPGLSQPELSQDSYLGDEFKSQIDVALSQDSTYQGERAYQHGGVTGLSQY
